From publication PMC4627082, “MCM ring hexamerization is a prerequisite for DNA-binding” (Nucleic Acids Research, 2015)
No constants are given. Whether binding was seen depends on the method and setting. Some results given as binding are weak or reduced against the parent protein; the word gives no strength.

B1: PfMCMN-βT (1–256; K233A; R234A; K236A) (domain or fragment, Pyrococcus furiosus, UniProt Q8U3I4 1-256, looked up)
chain: MDREEMIERFANFLREYTDEDGNPVYRGKITDLLTITPKRSVAIDWMHLNSFDSELAHEVIENPEEGISAAEDAIQIVLREDFQREDVGKIHARFYNLPETLMVKDIGAEHINKLIQVEGIVTRVGEIKPFVSVAVFVCKDCGHEMIVPQKPYESLEKVKKCEQCGSKNIELDVNKSSFVNFQSFRIQDRPETLKGGEMPRFIDGILLDDIVDVALPGDRVIVTGILRVVLEAAEATPIFRKILEVNHIEPVSKEI
notes: Minichromosome Maintenance (MCM) protein of Pyrococcus furiosus, N-terminal domain, residues 1-256, with three alanine mutations of the β-turn; Made by site-directed mutagenesis of the PfMCMN-WT SUMO-fusion construct; SUMO removed by Ulp1; also called β-turn triple mutant; pCF076.1
B2: PfMCMN-ΔZFD (deletion of residues 131–181) (domain or fragment, UniProt Q8U3I4)
chain: MDREEMIERFANFLREYTDEDGNPVYRGKITDLLTITPKRSVAIDWMHLNSFDSELAHEVIENPEEGISAAEDAIQIVLREDFQREDVGKIHARFYNLPETLMVKDIGAEHINKLIQVEGIVTRVGEIKPFQSFRIQDRPETLKGGEMPRFIDGILLDDIVDVALPGDRVIVTGILRVVLEKREKTPIFRKILEVNHIEPVSKEI

How the values were obtained:
[1] = molecular target: PfMCMN-βT (1–256; K233A; R234A; K236A) (Pyrococcus furiosus) (UniProt Q8U3I4); assay: crystal structure; hanging drop vapor diffusion, stock protein 340 μM, ammonium sulfate conditions; molecular replacement with the PfMCMN-WT monomer; 3.20 Å; both purified
[2] = molecular target: PfMCMN-ΔZFD (deletion of residues 131–181) (Pyrococcus furiosus) (UniProt Q8U3I4); assay: AUC; sedimentation velocity, 20°C, 50 000 rpm, 20 mM HEPES pH 7.6, 200 mM NaCl, 5 mM β-mercaptoethanol, interference and absorbance optics, c(s) distributions; isotherm of signal-average s-values fitted to monomer-hexamer self-association; some WT samples with 40-mer oligo-dT ssDNA (T40); both purified
[3] = molecular target: PfMCMN-ΔZFD (deletion of residues 131–181) (Pyrococcus furiosus) (UniProt Q8U3I4); assay: SEC; final size-exclusion chromatography step of purification; elution volume compared with PfMCMN-WT; both purified

Binder | binding [1] | binding [2] | binding [3]
B1 | binds | – | –
B2 | – | no binding (tested: 360 μM) | no binding
